These are yes or no findings as the source states them, for the method shown. Where a sequence is shown, tags or fusion partners need not be part of it.
Target: ceHexim F156L fused to the Gal4 DNA-binding domain (C. elegans)
Experiment: two-hybrid; C. elegans proteins: ceHexim fused to the Gal4 DNA-binding domain, cit-1.2 fused to the Gal4 activation domain; growth in LTU medium (lacking uracil)

- binding: no binding
B1: C. elegans Cyclin T (cit-1.2), wild type, fused to the Gal4 activation domain (protein, UniProt P34424 1-555)
chain: MSNSNKLIAEKNGSRYGRMIHPWLRKKQDMLADTPSRREGMTYEEELSKRQQGGVFIFDIAMQLTHGKGEHGLSGVAATLFNRFFNVHSLKRCDFRDVAAACVFLAGKNEDAPKKLKYVVTQLWQFKYPHNKQFQSEQHFLDQCNVVTLIEDVLLKTISFDINVDLPHQYVLKLMRDVEKGRNVYKDMVKTAYYMATDVLIITDWSVRYSCASIATACVNIAAFFHNINMDDIVPFELSDRWYRLEDQSMTREEVEAMTKEFLDIFSRNPQFHIGSLKKIDPLGKVKIVGMPPQVSSTVTPSGSSSNLKKIDLESYKGRPKPLSNSSDSPSTRPSFLPDVKNQKVVEQELMEQRMKEAAQQKIHRNGHRPSSSSHPLHHHSTSSSASNNSNHQNRSSSGLSAHQHQKPYNEDSRSAKRSMMYEETNSSKKPRIDYKMSFVASSSTTIATMHNDHFSQTTHQQNISTYARGVNEMMLNQVAPPPLMSVSAQPSTYQKMCMEYQRNPADSRHTMSSTQQISPPDEPSPPVSQILLPPPPPPPILPPRLDEMEEGELV

Reference: paper PMC4227133
